# In the supplement of paper PMC8728848:
# This is one part of the list.
# B1: B3GalT2 (Rattus norvegicus) (protein)
# chain: LMLQWRRRHCCFAKMSWNAKRSLFRTHLMGVLSLVFLFAMFLFFNHHDWLPGRPGFKENPVTYTFRGFRSTKTETNQSSLRNIWKEVVPQTLRPQTATNSNNTELSPQGVTGLENTLSANGSIYNEKGTGHPNSYHFKYIINEPEKCQEKSPFLILLIAAEPGQIEARRAIRQTWGNETLAPGIQITRIFLLGISIKLNGYLQHAIQEESIQYHDIIQQEYLDTYYNLTIKTLMGMNWVATYCPHTPYVMKTDSDMFVNTEYLIHKLLKPDLPPRHNYFTGYLMRGYAPNRNKDSKWYMPPDLYPSERYPVFCSGTGYVFSGDLAEKIFKVSLGIRRLHLEDVYVGICLAKLRVDPVPPPNEFVFNHWRVSYSSCKYSHLITSHQFQPSELIKYWNHLQQNKHNACVNAAKEKAGRYRHRKLH
# What was measured:
# Experiment in all cases: glycan array binding signal (z-score within array); higher = stronger binding
# Conditions in all cases: glycan notation: IUPAC condensed, linker removed
# [1] = biological target: Gal(b1-4)GlcNAc(b1-2)[Gal(b1-4)GlcNAc(b1-6)]Man(a1-6)[GlcNAc(b1-4)][Gal(b1-4)GlcNAc(b1-2)Man(a1-3)]Man(b1-4)GlcNAc(b1-4)GlcNAc
# In short: (§1)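 Glycan array data were curated from 3228 arrays in the Consortium for Functional Glycomics database and kept only where the protein sequence was available. Glycan names were converted to IUPAC-condensed notation, and columns mapping to the same glycan were averaged. The binding signal is a within-array Z-score, averaged across arrays of the same protein sequence at different concentrations or buffers and across linkers. Negative Z-scores can be read as non-binding.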
# [2] = biological target: Gal(b1-4)GlcNAc(b1-2)[Gal(b1-4)GlcNAc(b1-6)]Man(a1-6)[GlcNAc(b1-4)][Gal(b1-4)GlcNAc(b1-2)[Gal(b1-4)GlcNAc(b1-4)]Man(a1-3)]Man(b1-4)GlcNAc(b1-4)[Fuc(a1-6)]GlcNAc
# In short: as §1
# [3] = biological target: Gal(b1-4)GlcNAc(b1-3)Gal(b1-3)GalNAc
# In short: as §1
# [4] = biological target: Gal(b1-4)GlcNAc(b1-3)Gal(b1-3)GlcNAc
# In short: as §1
# [5] = biological target: Gal(b1-4)GlcNAc(b1-3)Gal(b1-4)Glc
# In short: as §1
# [6] = biological target: Gal(b1-4)GlcNAc(b1-3)Gal(b1-4)GlcNAc
# In short: as §1
# [7] = biological target: Gal(b1-4)GlcNAc(b1-3)Gal(b1-4)GlcNAc(b1-2)Man(a1-3)[Gal(b1-4)GlcNAc(b1-3)Gal(b1-4)GlcNAc(b1-2)Man(a1-6)]Man(b1-4)GlcNAc(b1-4)GlcNAc
# In short: as §1
# [8] = biological target: Gal(b1-4)GlcNAc(b1-3)Gal(b1-4)GlcNAc(b1-2)Man(a1-3)[Gal(b1-4)GlcNAc(b1-3)Gal(b1-4)GlcNAc(b1-2)Man(a1-6)]Man(b1-4)GlcNAc(b1-4)[Fuc(a1-6)]GlcNAc
# In short: as §1
# [9] = biological target: Gal(b1-4)GlcNAc(b1-3)Gal(b1-4)GlcNAc(b1-2)[Gal(b1-4)GlcNAc(b1-3)Gal(b1-4)GlcNAc(b1-6)]Man(a1-6)[Gal(b1-4)GlcNAc(b1-3)Gal(b1-4)GlcNAc(b1-2)Man(a1-3)]Man(b1-4)GlcNAc(b1-4)GlcNAc
# In short: as §1
# [10] = biological target: Gal(b1-4)GlcNAc(b1-3)Gal(b1-4)GlcNAc(b1-2)[Gal(b1-4)GlcNAc(b1-3)Gal(b1-4)GlcNAc(b1-6)]Man(a1-6)[Gal(b1-4)GlcNAc(b1-3)Gal(b1-4)GlcNAc(b1-2)Man(a1-3)]Man(b1-4)GlcNAc(b1-4)[Fuc(a1-6)]GlcNAc
# In short: as §1
# [11] = biological target: Gal(b1-4)GlcNAc(b1-3)Gal(b1-4)GlcNAc(b1-3)Gal(b1-4)GlcNAc
# In short: as §1
# [12] = biological target: Gal(b1-4)GlcNAc(b1-3)Gal(b1-4)GlcNAc(b1-3)Gal(b1-4)GlcNAc(b1-2)Man(a1-3)[Gal(b1-4)GlcNAc(b1-3)Gal(b1-4)GlcNAc(b1-3)Gal(b1-4)GlcNAc(b1-2)Man(a1-6)]Man(b1-4)GlcNAc(b1-4)GlcNAc
# In short: as §1
# [13] = biological target: Gal(b1-4)GlcNAc(b1-3)Gal(b1-4)GlcNAc(b1-3)Gal(b1-4)GlcNAc(b1-2)Man(a1-3)[Gal(b1-4)GlcNAc(b1-3)Gal(b1-4)GlcNAc(b1-3)Gal(b1-4)GlcNAc(b1-2)Man(a1-6)]Man(b1-4)GlcNAc(b1-4)[Fuc(a1-6)]GlcNAc
# In short: as §1
# [14] = biological target: Gal(b1-4)GlcNAc(b1-3)Gal(b1-4)GlcNAc(b1-3)Gal(b1-4)GlcNAc(b1-2)[Gal(b1-4)GlcNAc(b1-3)Gal(b1-4)GlcNAc(b1-3)Gal(b1-4)GlcNAc(b1-6)]Man(a1-6)[Gal(b1-4)GlcNAc(b1-3)Gal(b1-4)GlcNAc(b1-3)Gal(b1-4)GlcNAc(b1-2)Man(a1-3)]Man(b1-4)GlcNAc(b1-4)[Fuc(a1-6)]GlcNAc
# In short: as §1
# [15] = biological target: Gal(b1-4)GlcNAc(b1-3)Gal(b1-4)GlcNAc(b1-3)Gal(b1-4)GlcNAc(b1-3)Gal(b1-4)GlcNAc(b1-2)Man(a1-3)[Gal(b1-4)GlcNAc(b1-3)Gal(b1-4)GlcNAc(b1-3)Gal(b1-4)GlcNAc(b1-3)Gal(b1-4)GlcNAc(b1-2)Man(a1-6)]Man(b1-4)GlcNAc(b1-4)GlcNAc
# In short: as §1
# [16] = biological target: Gal(b1-4)GlcNAc(b1-3)Gal(b1-4)GlcNAc(b1-3)Gal(b1-4)GlcNAc(b1-3)Gal(b1-4)GlcNAc(b1-2)Man(a1-3)[Gal(b1-4)GlcNAc(b1-3)Gal(b1-4)GlcNAc(b1-3)Gal(b1-4)GlcNAc(b1-3)Gal(b1-4)GlcNAc(b1-2)Man(a1-6)]Man(b1-4)GlcNAc(b1-4)[Fuc(a1-6)]GlcNAc
# In short: as §1
# [17] = biological target: Gal(b1-4)GlcNAc(b1-3)Gal(b1-4)GlcNAc(b1-3)Gal(b1-4)GlcNAc(b1-3)Gal(b1-4)GlcNAc(b1-2)[Gal(b1-4)GlcNAc(b1-3)Gal(b1-4)GlcNAc(b1-3)Gal(b1-4)GlcNAc(b1-3)Gal(b1-4)GlcNAc(b1-6)]Man(a1-6)[Gal(b1-4)GlcNAc(b1-3)Gal(b1-4)GlcNAc(b1-3)Gal(b1-4)GlcNAc(b1-3)Gal(b1-4)GlcNAc(b1-2)Man(a1-3)]Man(b1-4)GlcNAc(b1-4)[Fuc(a1-6)]GlcNAc
# In short: as §1
# [18] = biological target: Gal(b1-4)GlcNAc(b1-3)Gal(b1-4)GlcNAc(b1-3)Gal(b1-4)GlcNAc(b1-3)Gal(b1-4)GlcNAc(b1-3)Gal(b1-4)GlcNAc(b1-2)Man(a1-3)[Gal(b1-4)GlcNAc(b1-3)Gal(b1-4)GlcNAc(b1-3)Gal(b1-4)GlcNAc(b1-3)Gal(b1-4)GlcNAc(b1-3)Gal(b1-4)GlcNAc(b1-2)Man(a1-6)]Man(b1-4)GlcNAc(b1-4)GlcNAc
# In short: as §1
# [19] = biological target: Gal(b1-4)GlcNAc(b1-3)Gal(b1-4)GlcNAc(b1-3)Gal(b1-4)GlcNAc(b1-3)Gal(b1-4)GlcNAc(b1-3)Gal(b1-4)GlcNAc(b1-2)Man(a1-3)[Gal(b1-4)GlcNAc(b1-3)Gal(b1-4)GlcNAc(b1-3)Gal(b1-4)GlcNAc(b1-3)Gal(b1-4)GlcNAc(b1-3)Gal(b1-4)GlcNAc(b1-2)Man(a1-6)]Man(b1-4)GlcNAc(b1-4)[Fuc(a1-6)]GlcNAc
# In short: as §1
# [20] = biological target: Gal(b1-4)GlcNAc(b1-3)Gal(b1-4)GlcNAc(b1-3)Gal(b1-4)GlcNAc(b1-3)Gal(b1-4)GlcNAc(b1-3)Gal(b1-4)GlcNAc(b1-2)[Gal(b1-4)GlcNAc(b1-3)Gal(b1-4)GlcNAc(b1-3)Gal(b1-4)GlcNAc(b1-3)Gal(b1-4)GlcNAc(b1-3)Gal(b1-4)GlcNAc(b1-6)]Man(a1-6)[Gal(b1-4)GlcNAc(b1-3)Gal(b1-4)GlcNAc(b1-3)Gal(b1-4)GlcNAc(b1-3)Gal(b1-4)GlcNAc(b1-3)Gal(b1-4)GlcNAc(b1-2)Man(a1-3)]Man(b1-4)GlcNAc(b1-4)[Fuc(a1-6)]GlcNAc
# In short: as §1
# [21] = biological target: Gal(b1-4)GlcNAc(b1-3)Gal(b1-4)GlcNAc(b1-3)Gal(b1-4)GlcNAc(b1-3)Gal(b1-4)GlcNAc(b1-3)Gal(b1-4)GlcNAc(b1-3)Gal(b1-4)GlcNAc(b1-2)Man(a1-3)[Gal(b1-4)GlcNAc(b1-3)Gal(b1-4)GlcNAc(b1-3)Gal(b1-4)GlcNAc(b1-3)Gal(b1-4)GlcNAc(b1-3)Gal(b1-4)GlcNAc(b1-3)Gal(b1-4)GlcNAc(b1-2)Man(a1-6)]Man(b1-4)GlcNAc(b1-4)GlcNAc
# In short: as §1
# [22] = biological target: Gal(b1-4)GlcNAc(b1-3)Gal(b1-4)GlcNAc(b1-3)GalNAc
# In short: as §1
# [23] = biological target: Gal(b1-4)GlcNAc(b1-3)Gal(b1-4)GlcNAc(b1-3)[Gal(b1-4)GlcNAc(b1-3)Gal(b1-4)GlcNAc(b1-6)]GalNAc
# In short: as §1
# [24] = biological target: Gal(b1-4)GlcNAc(b1-3)Gal(b1-4)GlcNAc(b1-6)[Gal(b1-3)]GalNAc
# In short: as §1
# [25] = biological target: Gal(b1-4)GlcNAc(b1-3)Gal(b1-4)[Fuc(a1-3)]GlcNAc(b1-3)Gal(b1-4)[Fuc(a1-3)]GlcNAc
# In short: as §1
# [26] = biological target: Gal(b1-4)GlcNAc(b1-3)GalNAc
# In short: as §1
# [27] = biological target: Gal(b1-4)GlcNAc(b1-3)[Fuc(a1-3)GlcNAc(b1-6)]Gal(b1-4)Glc
# In short: as §1
# [28] = biological target: Gal(b1-4)GlcNAc(b1-3)[Gal(b1-4)GlcNAc(b1-6)]Gal(b1-4)GlcNAc
# In short: as §1
# [29] = biological target: Gal(b1-4)GlcNAc(b1-3)[GlcNAc(b1-6)]Gal(b1-4)GlcNAc
# In short: as §1
# [30] = biological target: Gal(b1-4)GlcNAc(b1-6)Gal(b1-4)GlcNAc
# In short: as §1
# [31] = biological target: Gal(b1-4)GlcNAc(b1-6)GalNAc
# In short: as §1
# [32] = biological target: Gal(b1-4)GlcNAc(b1-6)[Gal(b1-3)]GalNAc
# In short: as §1
# [33] = biological target: Gal(b1-4)GlcNAc(b1-6)[Gal(b1-4)GlcNAc(b1-3)]GalNAc
# In short: as §1
# Gal(b1-4)GlcNAc6P = biological target: Gal(b1-4)GlcNAc6P
# In short: as §1
# Gal(b1-6)Gal = biological target: Gal(b1-6)Gal
# In short: as §1
# Gal3S(b1-3)GalNAc = biological target: Gal3S(b1-3)GalNAc
# In short: as §1
# Gal3S(b1-3)GlcNAc = biological target: Gal3S(b1-3)GlcNAc
# In short: as §1
# [34] = biological target: Gal3S(b1-3)[Fuc(a1-4)]GlcNAc
# In short: as §1
binder,measurement,setting,value
B1,glycan array binding signal (z-score),[1],-0.839
same,glycan array binding signal (z-score),[2],-0.758
same,glycan array binding signal (z-score),[3],0.197
same,glycan array binding signal (z-score),[4],-0.757
same,glycan array binding signal (z-score),[5],-0.447
same,glycan array binding signal (z-score),[6],0.439
same,glycan array binding signal (z-score),[7],-0.611
same,glycan array binding signal (z-score),[8],-0.476
same,glycan array binding signal (z-score),[9],-0.101
same,glycan array binding signal (z-score),[10],-0.963
same,glycan array binding signal (z-score),[11],-0.305
same,glycan array binding signal (z-score),[12],1.32
same,glycan array binding signal (z-score),[13],-0.835
same,glycan array binding signal (z-score),[14],-0.937
same,glycan array binding signal (z-score),[15],0.027
same,glycan array binding signal (z-score),[16],-0.286
same,glycan array binding signal (z-score),[17],0.196
same,glycan array binding signal (z-score),[18],1.48
same,glycan array binding signal (z-score),[19],0.111
same,glycan array binding signal (z-score),[20],1.2
same,glycan array binding signal (z-score),[21],-0.978
same,glycan array binding signal (z-score),[22],0.143
same,glycan array binding signal (z-score),[23],-0.734
same,glycan array binding signal (z-score),[24],0.38
same,glycan array binding signal (z-score),[25],-0.566
same,glycan array binding signal (z-score),[26],0.538
same,glycan array binding signal (z-score),[27],-0.56
same,glycan array binding signal (z-score),[28],-0.553
same,glycan array binding signal (z-score),[29],-0.287
same,glycan array binding signal (z-score),[30],0.189
same,glycan array binding signal (z-score),[31],0.384
same,glycan array binding signal (z-score),[32],0.012
same,glycan array binding signal (z-score),[33],0.46
same,glycan array binding signal (z-score),Gal(b1-4)GlcNAc6P,0.324
same,glycan array binding signal (z-score),Gal(b1-6)Gal,-0.134
same,glycan array binding signal (z-score),Gal3S(b1-3)GalNAc,0.283
same,glycan array binding signal (z-score),Gal3S(b1-3)GlcNAc,0.27
same,glycan array binding signal (z-score),[34],0.497

# Quoted at random: 2 entries already listed
binder,measurement,setting,value
B1,glycan array binding signal (z-score),[18],1.48
same,glycan array binding signal (z-score),[7],-0.611
